PubChem BioAssay AID1259424 – University of Nebraska Medical Center – 2018

Screen: 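Rank knockdowns across the genome by resemblance to the KSR1 depletion profile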 (primary screen)
Cells: human HCT116 colon cancer cells
Knock-down reagent: siRNA pool against human genes, 50 nM
Measured: 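Six signature mRNAs by branched-DNA multiplex assay, scaled to two housekeeping genes and non-targeting median, log2; matched to mean KSR1 knockdown profile by Pearson correlation and euclidean distance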
Scale: mean correlation with KSR1 profile and KSR1 correlation: higher = expression change more like KSR1 knockdown; mean distance from KSR1 profile: higher = expression change less like KSR1 knockdown
This is an unselected part of about 14,000 deposited reagents. 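Higher correlation or smaller distance means closer resemblance to KSR1 loss; control wells, including KSR1 knockdowns, recur on many plates.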 Reagents against one gene are numbered here. A reagent listed more than once was tested more than once; the source does not tell the runs apart. Not all columns of the deposit are shown. Reagent sequences are not shown. Not given: the time to read-out.

Target gene | reagent | mean correlation with KSR1 profile | mean distance from KSR1 profile | KSR1 correlation, replicate 1
ALDH9A1 (aldehyde dehydrogenase 9 family member A1) | 1 | 0.0803 | 1.13 | -0.0643
AKT1 (AKT serine/threonine kinase 1) | 1 | 0.0398 | 2.52 | 0.0935
AKT1 (AKT serine/threonine kinase 1) | 2 | 0.307 | 1.92 | 0.27
POLRMT (RNA polymerase mitochondrial) | 1 | -0.399 | 2.87 | -0.234
OR7E5P (olfactory receptor family 7 subfamily E member 5 pseudogene) | 1 | 0.414 | 1.47 | 0.609
ADH7 (alcohol dehydrogenase 7 (class IV), mu or sigma polypeptide) | 1 | -0.172 | 4.78 | -0.127
ZBTB4 (zinc finger and BTB domain containing 4) | 1 | 0.161 | 2.24 | 0.283
ANGPTL1 (angiopoietin like 1) | 1 | -0.808 | 1.94 | -0.599
NCAPD3 (non-SMC condensin II complex subunit D3) | 1 | -0.715 | 1.99 | -0.688
LRIG2 (leucine rich repeats and immunoglobulin like domains 2) | 1 | 0.856 | 0.956 | 0.818
MAGED4B (MAGE family member D4B) | 1 | 0.53 | 1.76 | 0.502
CLDND1 (claudin domain containing 1) | 1 | -0.42 | 3.48 | -0.3
PRH1 (proline rich protein HaeIII subfamily 1) | 1 | 0.0944 | 2.38 | 0.155
POGLUT2 (protein O-glucosyltransferase 2) | 1 | 0.524 | 1.01 | 0.418
CALCA (calcitonin related polypeptide alpha) | 1 | 0.467 | 1.89 | 0.319
CIB1 (calcium and integrin binding 1) | 1 | -0.297 | 1.87 | -0.248
SUPT3H (SPT3 homolog, SAGA and STAGA complex component) | 1 | -0.24 | 2.03 | -0.024
PPP1R1B (protein phosphatase 1 regulatory inhibitor subunit 1B) | 1 | 0.649 | 1.19 | 0.696
NCKIPSD (NCK interacting protein with SH3 domain) | 1 | 0.0135 | 1.79 | 0.281
NCKIPSD (NCK interacting protein with SH3 domain) | 1 | -0.19 | 1.46 | 0.175
APBB1 (amyloid beta precursor protein binding family B member 1) | 1 | -0.272 | 2.6 | 0.0749
MAML2 (mastermind like transcriptional coactivator 2) | 1 | 0.0156 | 1.62 | -0.352
RAB34 (RAB34, member RAS oncogene family) | 1 | 0.836 | 1.64 | 0.72
PLEKHN1 (pleckstrin homology domain containing N1) | 1 | 0.571 | 2.81 | 0.538
NECAB3 (N-terminal EF-hand calcium binding protein 3) | 1 | -0.257 | 1.46 | -0.156
ZEB1 (zinc finger E-box binding homeobox 1) | 1 | -0.375 | 2.44 | 0.153
UPF3A (UPF3A regulator of nonsense mediated mRNA decay) | 1 | -0.11 | 1.8 | -0.147
NFKBID (NFKB inhibitor delta) | 1 | 0.581 | 1.31 | 0.398
TTC22 (tetratricopeptide repeat domain 22) | 1 | -0.057 | 3.71 | 0.12
LUZP1 (leucine zipper protein 1) | 1 | -0.485 | 2.53 | -0.427
TMEM87A (transmembrane protein 87A) | 1 | -0.0799 | 1.78 | 0.118
NOL10 (nucleolar protein 10) | 1 | 0.327 | 2.11 | 0.34
ROPN1 (rhophilin associated tail protein 1) | 1 | 0.43 | 2.35 | 0.436
ING4 (inhibitor of growth family member 4) | 1 | 0.203 | 2.5 | 0.416

5 entries already listed, arranged by “KSR1 correlation, replicate 1”, high to low.
Target gene | reagent | mean correlation with KSR1 profile | mean distance from KSR1 profile | KSR1 correlation, replicate 1
POGLUT2 (protein O-glucosyltransferase 2) | 1 | 0.524 | 1.01 | 0.418
CALCA (calcitonin related polypeptide alpha) | 1 | 0.467 | 1.89 | 0.319
PRH1 (proline rich protein HaeIII subfamily 1) | 1 | 0.0944 | 2.38 | 0.155
CIB1 (calcium and integrin binding 1) | 1 | -0.297 | 1.87 | -0.248
CLDND1 (claudin domain containing 1) | 1 | -0.42 | 3.48 | -0.3
